For 7 molecules, binding results are on record in paper PMC4550541 (Protein Engineering, Design and Selection, 2015).

Changes are numbered by the printed parent chain. Results are given in words; binding and its absence hold for the method and conditions named. Some results given as binding are weak or reduced against the parent protein; the word gives no strength.

B1: DARPin C4 (designed binder)
chain: DLGKKLLGAARAGQDDEVRILMADGADVNAKDEYGLTPLQLAAAHGHLEIVEVLLKNGADVNAVDAIGFTPLHLATFIGHLEIVEVLLKHGADANAQDKFGKAAFDISIDNGNGDLAEILQKL
B2: DARPin F1 (designed binder)
chain: DLGKKLLEAARAGEDDEVRVLMANGADVNAKDEYGLAPLYHATAHGHLEIVEVLLKNGADVNAVDAIGFTPLHLAAFIGHLEIAEVLLRHGADVNAQDKFGKTAFDISIDNVNEDLAEILQKL
notes: source: E. coli M15 (pQE30), purified (His trap; SEC on Superdex 75 for large scale); not shown: His6, N-terminal, kept
B3: DARPin C3 (designed binder)
chain: B2 chain with E14Q, V20I, A37T, H41L, A44T, E49G, A84V, R89K, K102N, V112G
B4: DARPin F3 (designed binder)
chain: B2 chain with E14Q, V20I, N24I, Y34C, A37T, H41L, A84V, R89K, D110G, V112G
B5: DARPin D4 (designed binder)
chain: B2 chain with G13R, E14Q, V20I, A37T, Y40H, H41L, A84V, R89K
B6: DARPin A1 (designed binder)
chain: DLGKKLLEAVRAGQGDEVRILMANGADVNAKDEYGLTPLHLATAHGHLEIVEVLLKNGADVNAADAIGFTPLHLAAFIGHLEIVEVLLKHGADVNAQDRFGKTAFDISIGNGNEDLAEILQKL
B7: DARPin B3 (designed binder)
chain: B6 chain with V10A, G15D, G25D, H40Q, T43A, A64M, A92V, R99K

This experiment concerns the target HER2 on SK-BR-3 cells (human (endogenous in SK-BR-3)) (UniProt P04626). Put plainly: flow cytometry on cells; SK-BR-3 cells incubated with purified DARPins (1 ug/ml, 1 h, room temperature); detected with anti-His antibody and PE-conjugated secondary antibody; only the binder purified.
As to B1, the binding entry is “binds”.
Then B2, with “binds”; and B3, with “binds”; and B4, with “binds”.
Next, B5: “binds”; B6: “binds”.
Next, B7: “binds”.
